Structures can show the parent of a compound that is named as a salt. The list shows a part of the results. Hit calls seldom repeat between salt and free forms of one compound.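 Kinases, fused to nanoluciferase, were expressed in K562 cells; luminescence was measured every 4 h from 2 to 18 h as percent of control (DMSO = 100%, positive control = 0%). A time point is decreased if signal falls significantly (2 sigma). Hits were called by the authors by a rule that is not shown; the count of time points alone does not decide it.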
Each compound was assayed against CSNK1A1 (UniProt P48729) (assay: kinase-Nluc reporter destabilization hit call (1 = scored as downregulated) (binary); higher = compound decreases kinase abundance). Conditions: K562; 2-18 h.

By UniProt entry, the sequences of proteins in these tests, tags left out. Where a name states a change or a piece, a line headed by the entry shows the natural chain unless it says otherwise.
UniProt P48729: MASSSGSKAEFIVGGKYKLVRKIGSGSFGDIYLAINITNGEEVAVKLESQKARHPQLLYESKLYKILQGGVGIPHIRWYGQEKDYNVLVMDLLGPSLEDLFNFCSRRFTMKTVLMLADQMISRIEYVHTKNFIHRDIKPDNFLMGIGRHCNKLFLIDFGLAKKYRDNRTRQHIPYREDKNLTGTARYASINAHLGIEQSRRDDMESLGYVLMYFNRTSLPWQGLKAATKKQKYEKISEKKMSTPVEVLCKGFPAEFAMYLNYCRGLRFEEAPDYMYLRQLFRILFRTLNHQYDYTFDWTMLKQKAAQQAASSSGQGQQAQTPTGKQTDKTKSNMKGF
UniProt P48730: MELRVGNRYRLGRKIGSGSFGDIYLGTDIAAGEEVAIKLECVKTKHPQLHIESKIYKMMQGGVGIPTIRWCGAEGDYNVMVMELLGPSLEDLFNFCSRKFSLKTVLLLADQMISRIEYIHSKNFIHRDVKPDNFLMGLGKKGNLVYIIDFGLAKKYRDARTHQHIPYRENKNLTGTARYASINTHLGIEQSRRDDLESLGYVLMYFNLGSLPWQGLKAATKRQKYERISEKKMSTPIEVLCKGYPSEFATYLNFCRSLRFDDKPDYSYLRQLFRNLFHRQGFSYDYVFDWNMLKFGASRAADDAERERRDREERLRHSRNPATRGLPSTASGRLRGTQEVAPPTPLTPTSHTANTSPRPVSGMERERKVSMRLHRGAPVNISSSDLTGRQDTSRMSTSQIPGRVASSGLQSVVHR

kinase-Nluc reporter destabilization hit call, inactive:
COc1ccc(COc2ccc(Cc3cnc(N)nc3N)cc2OC)cc1 (10 µM) 0
CC(=O)N1CCN(c2ccc(OCC3COC(Cn4ccnc4)(c4ccc(Cl)cc4Cl)O3)cc2)CC1 (centres undefined) [Ketoconazole] (2.5 µM) 0
Cc1ccc(F)c(NC(=O)Nc2ccc(-c3cccc4[nH]nc(N)c34)cc2)c1 [Linifanib] (2.5 µM) 0
NC(=O)c1ccc2nc(-c3ccc(Oc4ccc(Cl)cc4)cc3)[nH]c2c1 (10 µM) 0
CNc1nc(-c2ccc3c(N)n[nH]c3c2)cc(N2C[C@@H](C(=O)NC3CCCCC3)CC[C@H]2C)n1 (10 µM) 0
Cc1nc(N)sc1-c1ccnc(Nc2ccc(N3CCOCC3)cc2)n1 (10 µM) 0
O=c1oc2ccccc2c(O)c1Cc1c(O)c2ccccc2oc1=O [Dicoumarol] (10 µM) 0
CC(C)(C)c1cc(NC(=O)Nc2ccc(-c3cn4c(n3)sc3cc(OCCN5CCOCC5)ccc34)cc2)no1 [Quizartinib] (10 µM) 0
O=S(=O)(NCCNC/C=C/c1ccc(Br)cc1)c1cccc2cnccc12 [H-89 (dihydrochloride)] (10 µM) 0
COc1cc2ncn(-c3cc(OCc4ccccc4C(F)(F)F)c(C(N)=O)s3)c2cc1OC (10 µM) 0
CCn1cc(-c2ccnc3[nH]c(-c4cccc(CN(C)C)c4)cc23)c(-c2ccc(NC(=O)N(C)C)cc2)n1 (2.5 µM) 0
O=C1c2ccccc2-c2n[nH]c3cccc1c23 (10 µM) 0
C[C@]1(O)C[C@@H](c2nc(-c3ccc4ccc(-c5ccccc5)nc4c3)c3c(N)nccn32)C1 [Linsitinib] (2.5 µM) 0
C[C@H](CN(C)C)Oc1nc(Nc2cc3cccc(Cl)c3cn2)cnc1C#N (10 µM) 0
Cc1cccc(Cn2nc(C3CC3)c3c(NC(=O)c4cnc5cc(OCCN6CCN(C)CC6)ccn45)cccc32)n1 (10 µM) 0
COc1cc(OC)cc(-c2cc3cnc(N)nc3nc2NC(=O)NC(C)(C)C)c1 (10 µM) 0
COc1ccc2c(C(=O)Nc3ccc(NC(=O)c4nn(C5CCN(C(=O)CC(C)(C)C#N)CC5)c5ccc(F)cc45)cc3Cl)cnn2c1 [Src Inhibitor 3] (2.5 µM) 0
Oc1ccc(-c2nc(-c3ccc(F)cc3)c(-c3ccncc3)[nH]2)cc1 (2.5 µM) 0
O=c1c(-c2ccc(O)cc2)coc2cc(O)cc(O)c12 [Genistein] (10 µM) 0
CCN1CCN(Cc2ccc(C(=O)Nc3ccc(C)c(Oc4ccc5c(c4)CC(=O)N5)c3)cc2C(F)(F)F)CC1 (2.5 µM) 0

What follows are compounds tested against CSNK1D (UniProt P48730) in the same assay as above. Conditions: K562; 2-18 h.

kinase-Nluc reporter destabilization hit call, inactive:
CC(C)(C)n1nc(Cc2cccc3ccccc23)c2c(N)ncnc21 (10 µM) 0
CC1(C)CC=C(c2nc(C3CC(C)(C)OC(C)(C)C3)ccc2NC(=O)c2nc(C#N)c[nH]2)CC1 [Edicotinib] (2.5 µM) 0
CC(C)CC(=O)Nc1n[nH]c2c1CN(C(=O)C1CCN(C)CC1)C2(C)C (2.5 µM) 0
Nc1ncnc2c1c(-c1ccc(Oc3ccccc3)cc1)cn2C1CCCC1 (2.5 µM) 0
Cc1nc(-c2cnc(NC(C)C)n(C)c2=O)ccc1Oc1ccnc(-c2cnn(C)c2)c1 (2.5 µM) 0
CN(C)C(=O)/C(C#N)=C/c1ccc(-c2nc3cnc4[nH]ccc4c3n2C2CCCCC2)o1 (10 µM) 0
CCCS(=O)(=O)Nc1ccc(F)c(C(=O)c2c[nH]c3ncc(Cl)cc23)c1F (10 µM) 0
CNC(=O)c1cccc(-c2ccc3c(N4CCOC[C@@H]4C)nc(N4CCOC[C@@H]4C)nc3n2)c1 [Vistusertib] (2.5 µM) 0
COCCNCCc1cccc(Nc2ncc3c(n2)-c2ccccc2[C@H](c2ccccc2F)C3)c1 [Derazantinib] (2.5 µM) 0
CNC(=O)c1ccccc1Nc1nc(Nc2ccc(N3CCOCC3)cc2OC)ncc1Cl (2.5 µM) 0
Cc1ccc(NC(=O)Nc2nnc(Sc3ncnc4cc(OCCCN5CCOCC5)ccc34)s2)cc1 (10 µM) 0
N#CC(=Cc1ccc(O)c(O)c1)C(=O)NCc1ccccc1 (mixture of isomers) (10 µM) 0
COc1ccc(COc2ccc(Cc3cnc(N)nc3N)cc2OC)cc1 (10 µM) 0
CC(=O)N1CCN(c2ccc(OCC3COC(Cn4ccnc4)(c4ccc(Cl)cc4Cl)O3)cc2)CC1 (centres undefined) [Ketoconazole] (2.5 µM) 0
Cc1ccc(F)c(NC(=O)Nc2ccc(-c3cccc4[nH]nc(N)c34)cc2)c1 [Linifanib] (2.5 µM) 0
NC(=O)c1ccc2nc(-c3ccc(Oc4ccc(Cl)cc4)cc3)[nH]c2c1 (10 µM) 0
CNc1nc(-c2ccc3c(N)n[nH]c3c2)cc(N2C[C@@H](C(=O)NC3CCCCC3)CC[C@H]2C)n1 (10 µM) 0
O=c1oc2ccccc2c(O)c1Cc1c(O)c2ccccc2oc1=O [Dicoumarol] (10 µM) 0
CCc1nc(-c2cccc(C)c2)c(-c2ccnc(NC(=O)c3ccccc3)c2)s1 (10 µM) 0
CC(C)(C)c1cc(NC(=O)Nc2ccc(-c3cn4c(n3)sc3cc(OCCN5CCOCC5)ccc34)cc2)no1 [Quizartinib] (10 µM) 0
COc1cc2ncn(-c3cc(OCc4ccccc4C(F)(F)F)c(C(N)=O)s3)c2cc1OC (10 µM) 0
O=C1c2ccccc2-c2n[nH]c3cccc1c23 (10 µM) 0
C[C@]1(O)C[C@@H](c2nc(-c3ccc4ccc(-c5ccccc5)nc4c3)c3c(N)nccn32)C1 [Linsitinib] (2.5 µM) 0
C[C@H](CN(C)C)Oc1nc(Nc2cc3cccc(Cl)c3cn2)cnc1C#N (10 µM) 0
Cc1cc(C)c(/C=C2\C(=O)Nc3ccccc32)[nH]1 [Semaxinib] (10 µM) 0
Cc1cccc(Cn2nc(C3CC3)c3c(NC(=O)c4cnc5cc(OCCN6CCN(C)CC6)ccn45)cccc32)n1 (10 µM) 0
COc1cc(OC)cc(-c2cc3cnc(N)nc3nc2NC(=O)NC(C)(C)C)c1 (10 µM) 0
CN(c1ncccc1CNc1nc(Nc2ccc3c(c2)CC(=O)N3)ncc1C(F)(F)F)S(C)(=O)=O (2.5 µM) 0
COc1ccc2c(C(=O)Nc3ccc(NC(=O)c4nn(C5CCN(C(=O)CC(C)(C)C#N)CC5)c5ccc(F)cc45)cc3Cl)cnn2c1 [Src Inhibitor 3] (2.5 µM) 0
Oc1ccc(-c2nc(-c3ccc(F)cc3)c(-c3ccncc3)[nH]2)cc1 (2.5 µM) 0
COc1cc(Nc2ncc3c(n2)-c2ccc(Cl)cc2C(c2c(F)cccc2OC)=NC3)ccc1C(=O)O [Alisertib] (2.5 µM) 0
O=c1c(-c2ccc(O)cc2)coc2cc(O)cc(O)c12 [Genistein] (10 µM) 0
CN1CCN(c2ccc(C(=O)Nc3n[nH]c4ccc(Cc5cc(F)cc(F)c5)cc34)c(NC3CCOCC3)c2)CC1 [Entrectinib] (2.5 µM) 0
CCN1CCN(Cc2ccc(C(=O)Nc3ccc(C)c(Oc4ccc5c(c4)CC(=O)N5)c3)cc2C(F)(F)F)CC1 (2.5 µM) 0

From the supplement of paper PMC12823440, “Inhibitors supercharge kinase turnover through native proteolytic circuits” (Nature, 2025)
